Some of the results follow. Shown are side measurements of this screen, not its main read-out; they come without a call. The list favours compounds with an active or inconclusive main result. Words in brackets tell the shape of the fitted curve; partial curves, single points and poor fits give uncertain potencies.
Assay: qHTS Assay for Modulators of Lamin A Splicing
Settings: HeLa LMNA splicing GFP/RFP minigene ratio, 48 h
Procedure, shortened: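 Read-out is the ratio of GFP to DsRed2 object intensity, acquired by 488 nm laser-scanning cytometry on HeLa lamin A-EGFP minigene reporter cells. Compound incubation 48 hrs at 37 °C in Opti-MEM with 2% FBS; DMSO 0.5% final.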

[1] = measured here: GFP splicing reporter channel
[2] = measured here: RFP viability control channel

Row | SMILES | AC50 [1] | AC50 [2]
1 | COc1ccc(-n2nc(C(=O)NCC(=O)Nc3cccc(NC(C)=O)c3)c3ccccc3c2=O)cc1 | 0.158 µM [falling, full curve, poor fit] | –
2 | CCCc1ccc(OCC(=O)Nc2cc(S(=O)(=O)CC)ccc2O)cc1 | 11.2 µM [falling, single point] | 5.62 µM [falling, partial curve]
3 | O=C(CC1(O)C(=O)Nc2ccccc21)c1ccc(-n2cnnn2)cc1 (stereo not drawn) | 0.501 µM [rising, single point] | 0.631 µM [rising, single point]
4 | COc1cc(C2C(C(=O)/C=C/c3ccccc3)=C(O)C(=O)N2c2ccccn2)ccc1O (stereo not drawn) | 12.6 µM [falling, single point] | –
5 | COc1ccc2nc(Nc3nc(CSc4ccc(C)cc4)cc(=O)[nH]3)nc(C)c2c1 | 20 µM [falling, partial curve, poor fit] | –
6 | CCOc1ccc(-n2c(SCc3ccccc3)nc3c([nH]c4ccccc43)c2=O)cc1 | 35.5 µM [falling, single point] | 35.5 µM [falling, single point]
7 | COc1ccccc1NC(=O)COC(=O)c1ccc2c(c1)nc(C)n2-c1ccccc1 | – | 0.631 µM [rising, full curve, poor fit]
8 | CN1CCN(C(CNC(=O)C(=O)Nc2ccc(Cl)cc2)c2cccnc2)CC1 (stereo not drawn) | 35.5 µM [falling, single point] | 35.5 µM [falling, single point]
9 | O=C(COC(=O)c1c[nH]c(=O)[nH]c1=O)Nc1ccccc1 | 14.1 µM [falling, single point] | –
10 | O=C(Nc1ccccc1)c1cnc(-c2ccccc2)nc1-c1ccccc1 | 28.2 µM [falling, single point] | 35.5 µM [falling, single point]
11 | N#CC1=C(N)NC(SCC(=O)c2ccc(Br)cc2)=C(C#N)C12CCCCC2 | 8.91 µM [rising, partial curve, poor fit] | 17.8 µM [rising, single point]
12 | CCOC(=O)c1ccc(NC(=O)c2c(NCc3sccc3C)sc3c2CCC(C)C3)cc1 (stereo not drawn) | 0.00355 µM [rising, full curve, poor fit] | 22.4 µM [rising, partial curve]
13 | Cc1nn(CCO)c2nc(-c3cccs3)cc(C(F)(F)F)c12 | 7.94 µM [rising, partial curve, poor fit] | 0.891 µM [rising, partial curve]
14 | N#CCCn1c(=O)c(-c2ccccc2)nc2cnc(Nc3ccccc3)nc21 | 11.2 µM [falling, partial curve] | 11.2 µM [falling, partial curve]

In the list so far, 3 contain an NH in an aromatic ring.
Row | SMILES | AC50 [1] | AC50 [2]
5 | COc1ccc2nc(Nc3nc(CSc4ccc(C)cc4)cc(=O)[nH]3)nc(C)c2c1 | 20 µM [falling, partial curve, poor fit] | –
6 | CCOc1ccc(-n2c(SCc3ccccc3)nc3c([nH]c4ccccc43)c2=O)cc1 | 35.5 µM [falling, single point] | 35.5 µM [falling, single point]
9 | O=C(COC(=O)c1c[nH]c(=O)[nH]c1=O)Nc1ccccc1 | 14.1 µM [falling, single point] | –
